The list shows a part of the results.
Assays:
Assay in all cases: log2 fold change, soluble protein after heating vs DMSO (PISA); higher = thermal stabilisation; K562 lysate, 10 uM; active = over 0.2 and 3.5 SD of the protein, either way, in both replicates (recomputed)
erlotinib = compound: C#Cc1cccc(Nc2ncnc3cc(OCCOC)c(OCCOC)cc23)c1 [erlotinib]
Summary of the method: (§1)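 Soluble protein was defined as the supernatant remaining after 21,000xg for 90 min, following pooling of heated aliquots and adjustment to 0.5% NP-40 at 4°C. Before that, crude K562 extract at 1 mg/mL protein in PBS pH 7.4 with 1 mM MgCl2 was treated with 10 μM compound for 30 min and heated for 3 min across 48°C-58°C. Quantification used TMTpro 16plex LC-MS/MS with channel sums equalised, and values are log-two fold changes in thermal stability relative to solvent controls from duplicates.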

Chains of the proteins cited; added tags and fusions are not shown. Lines headed by an entry give the natural chain unless they say otherwise; changes in a name come on top.
UniProt P48029: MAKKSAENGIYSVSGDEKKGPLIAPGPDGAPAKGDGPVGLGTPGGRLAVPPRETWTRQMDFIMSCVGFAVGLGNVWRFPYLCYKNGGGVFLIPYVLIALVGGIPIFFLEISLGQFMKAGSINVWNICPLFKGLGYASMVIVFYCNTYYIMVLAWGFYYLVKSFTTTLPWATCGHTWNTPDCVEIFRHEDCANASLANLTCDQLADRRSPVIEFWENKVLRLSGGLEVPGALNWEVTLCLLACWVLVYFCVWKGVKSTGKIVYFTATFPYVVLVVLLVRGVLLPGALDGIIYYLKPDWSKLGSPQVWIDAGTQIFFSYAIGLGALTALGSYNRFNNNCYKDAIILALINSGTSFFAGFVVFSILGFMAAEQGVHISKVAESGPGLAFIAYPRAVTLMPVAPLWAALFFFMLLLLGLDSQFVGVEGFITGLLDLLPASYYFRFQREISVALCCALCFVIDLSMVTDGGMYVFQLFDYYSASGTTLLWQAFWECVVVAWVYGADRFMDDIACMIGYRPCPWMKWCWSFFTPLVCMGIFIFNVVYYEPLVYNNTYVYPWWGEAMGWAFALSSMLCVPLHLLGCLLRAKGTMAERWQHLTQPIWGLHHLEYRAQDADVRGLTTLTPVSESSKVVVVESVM
UniProt O76082: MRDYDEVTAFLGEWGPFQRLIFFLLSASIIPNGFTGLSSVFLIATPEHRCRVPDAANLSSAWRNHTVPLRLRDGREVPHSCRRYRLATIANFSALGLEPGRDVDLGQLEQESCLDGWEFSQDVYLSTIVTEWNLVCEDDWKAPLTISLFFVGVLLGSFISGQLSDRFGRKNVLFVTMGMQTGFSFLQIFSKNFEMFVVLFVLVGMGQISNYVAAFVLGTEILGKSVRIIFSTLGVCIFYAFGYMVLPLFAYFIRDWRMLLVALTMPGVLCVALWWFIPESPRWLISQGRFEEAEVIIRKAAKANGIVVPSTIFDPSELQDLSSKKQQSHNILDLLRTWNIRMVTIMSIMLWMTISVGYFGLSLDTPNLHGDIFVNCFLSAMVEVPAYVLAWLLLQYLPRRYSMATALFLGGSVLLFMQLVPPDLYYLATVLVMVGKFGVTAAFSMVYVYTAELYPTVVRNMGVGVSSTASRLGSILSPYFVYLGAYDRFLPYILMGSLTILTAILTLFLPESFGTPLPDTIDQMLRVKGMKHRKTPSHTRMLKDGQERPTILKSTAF
UniProt Q9Y2D2: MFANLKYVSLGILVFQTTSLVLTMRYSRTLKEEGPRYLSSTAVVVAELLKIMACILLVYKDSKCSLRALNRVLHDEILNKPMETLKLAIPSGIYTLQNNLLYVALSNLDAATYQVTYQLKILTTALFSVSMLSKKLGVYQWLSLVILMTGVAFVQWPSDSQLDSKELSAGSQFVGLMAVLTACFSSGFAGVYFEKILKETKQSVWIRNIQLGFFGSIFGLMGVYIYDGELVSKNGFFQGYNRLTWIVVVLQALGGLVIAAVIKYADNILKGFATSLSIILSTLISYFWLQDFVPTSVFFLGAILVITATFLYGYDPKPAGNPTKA
UniProt Q9BSK2: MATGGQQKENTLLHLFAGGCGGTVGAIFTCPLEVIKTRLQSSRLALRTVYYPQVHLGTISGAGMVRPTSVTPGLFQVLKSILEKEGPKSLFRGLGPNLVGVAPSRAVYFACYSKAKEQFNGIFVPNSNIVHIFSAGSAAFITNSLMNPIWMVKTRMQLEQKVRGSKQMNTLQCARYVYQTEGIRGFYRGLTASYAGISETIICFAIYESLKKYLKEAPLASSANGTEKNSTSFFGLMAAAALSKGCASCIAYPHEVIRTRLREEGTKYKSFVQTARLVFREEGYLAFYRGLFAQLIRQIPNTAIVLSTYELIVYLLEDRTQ
UniProt Q6NUK1: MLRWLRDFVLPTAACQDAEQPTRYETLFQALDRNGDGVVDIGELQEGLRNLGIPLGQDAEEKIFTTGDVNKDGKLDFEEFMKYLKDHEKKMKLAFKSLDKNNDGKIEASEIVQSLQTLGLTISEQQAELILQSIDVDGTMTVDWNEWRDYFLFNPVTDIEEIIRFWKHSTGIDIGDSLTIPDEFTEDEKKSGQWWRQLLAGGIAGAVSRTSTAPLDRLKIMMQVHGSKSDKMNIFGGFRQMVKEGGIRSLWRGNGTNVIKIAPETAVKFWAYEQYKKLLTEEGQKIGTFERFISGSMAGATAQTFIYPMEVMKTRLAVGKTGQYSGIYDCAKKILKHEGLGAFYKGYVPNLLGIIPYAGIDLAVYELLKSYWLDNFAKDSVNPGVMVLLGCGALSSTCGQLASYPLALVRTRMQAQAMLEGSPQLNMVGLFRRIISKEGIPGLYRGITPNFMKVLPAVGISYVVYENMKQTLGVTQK
UniProt P78383: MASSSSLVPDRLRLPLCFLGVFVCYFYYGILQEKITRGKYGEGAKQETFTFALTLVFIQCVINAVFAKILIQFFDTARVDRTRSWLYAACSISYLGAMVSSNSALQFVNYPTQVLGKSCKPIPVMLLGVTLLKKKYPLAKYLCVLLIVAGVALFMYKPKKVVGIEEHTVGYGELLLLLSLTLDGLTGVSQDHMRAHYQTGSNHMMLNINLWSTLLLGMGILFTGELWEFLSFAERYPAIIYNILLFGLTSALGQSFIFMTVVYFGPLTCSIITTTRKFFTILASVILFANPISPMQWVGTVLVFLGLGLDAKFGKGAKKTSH
UniProt Q8TBP6: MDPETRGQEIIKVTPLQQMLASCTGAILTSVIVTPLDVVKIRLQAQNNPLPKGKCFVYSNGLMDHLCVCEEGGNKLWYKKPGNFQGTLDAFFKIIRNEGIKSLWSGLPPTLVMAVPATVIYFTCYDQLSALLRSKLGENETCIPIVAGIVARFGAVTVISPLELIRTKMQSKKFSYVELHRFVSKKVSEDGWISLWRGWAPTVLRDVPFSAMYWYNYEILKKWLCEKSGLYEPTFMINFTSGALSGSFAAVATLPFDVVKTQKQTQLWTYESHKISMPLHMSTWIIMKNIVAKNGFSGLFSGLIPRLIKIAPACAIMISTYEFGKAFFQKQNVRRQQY
UniProt Q969S0: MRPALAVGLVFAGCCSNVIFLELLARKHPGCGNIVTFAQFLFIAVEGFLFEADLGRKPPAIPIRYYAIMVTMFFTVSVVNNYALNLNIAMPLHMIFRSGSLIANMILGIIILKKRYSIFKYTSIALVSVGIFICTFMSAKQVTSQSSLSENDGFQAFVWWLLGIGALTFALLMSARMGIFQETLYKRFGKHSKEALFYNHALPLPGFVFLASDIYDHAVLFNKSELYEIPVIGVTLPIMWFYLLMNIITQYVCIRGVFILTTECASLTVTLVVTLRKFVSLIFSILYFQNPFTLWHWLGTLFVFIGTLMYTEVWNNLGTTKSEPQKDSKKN
UniProt Q9Y289: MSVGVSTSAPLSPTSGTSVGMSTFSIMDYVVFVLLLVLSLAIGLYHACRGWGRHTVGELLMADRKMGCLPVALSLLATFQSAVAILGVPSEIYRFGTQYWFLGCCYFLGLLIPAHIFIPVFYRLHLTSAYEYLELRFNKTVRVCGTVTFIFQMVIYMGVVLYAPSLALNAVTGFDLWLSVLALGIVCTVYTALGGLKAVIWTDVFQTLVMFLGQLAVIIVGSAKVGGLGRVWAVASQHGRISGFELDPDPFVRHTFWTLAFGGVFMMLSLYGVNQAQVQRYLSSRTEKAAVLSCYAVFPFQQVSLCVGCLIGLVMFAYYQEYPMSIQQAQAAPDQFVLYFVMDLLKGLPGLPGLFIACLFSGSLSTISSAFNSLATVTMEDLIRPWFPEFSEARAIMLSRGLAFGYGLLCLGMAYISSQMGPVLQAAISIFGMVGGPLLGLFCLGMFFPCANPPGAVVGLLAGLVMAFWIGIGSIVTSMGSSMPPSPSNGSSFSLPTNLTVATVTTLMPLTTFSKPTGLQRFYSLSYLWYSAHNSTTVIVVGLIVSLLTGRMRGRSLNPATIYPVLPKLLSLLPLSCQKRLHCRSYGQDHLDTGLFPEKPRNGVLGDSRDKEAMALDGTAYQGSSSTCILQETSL
UniProt Q9NP59: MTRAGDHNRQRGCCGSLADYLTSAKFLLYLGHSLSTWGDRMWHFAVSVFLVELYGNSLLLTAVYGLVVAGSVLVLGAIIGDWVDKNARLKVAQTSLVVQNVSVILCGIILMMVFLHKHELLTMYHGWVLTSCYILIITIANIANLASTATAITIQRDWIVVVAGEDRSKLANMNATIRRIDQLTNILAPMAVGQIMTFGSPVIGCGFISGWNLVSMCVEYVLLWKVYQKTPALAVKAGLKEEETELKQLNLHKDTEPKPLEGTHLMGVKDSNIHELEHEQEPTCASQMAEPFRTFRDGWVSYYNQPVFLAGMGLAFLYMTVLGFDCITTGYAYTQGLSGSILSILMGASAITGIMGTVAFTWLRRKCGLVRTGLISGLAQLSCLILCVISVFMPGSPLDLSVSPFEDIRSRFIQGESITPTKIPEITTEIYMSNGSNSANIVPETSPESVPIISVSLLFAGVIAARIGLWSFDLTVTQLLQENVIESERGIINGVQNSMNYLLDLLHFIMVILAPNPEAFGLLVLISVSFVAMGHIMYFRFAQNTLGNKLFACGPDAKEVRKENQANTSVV
UniProt Q96K37: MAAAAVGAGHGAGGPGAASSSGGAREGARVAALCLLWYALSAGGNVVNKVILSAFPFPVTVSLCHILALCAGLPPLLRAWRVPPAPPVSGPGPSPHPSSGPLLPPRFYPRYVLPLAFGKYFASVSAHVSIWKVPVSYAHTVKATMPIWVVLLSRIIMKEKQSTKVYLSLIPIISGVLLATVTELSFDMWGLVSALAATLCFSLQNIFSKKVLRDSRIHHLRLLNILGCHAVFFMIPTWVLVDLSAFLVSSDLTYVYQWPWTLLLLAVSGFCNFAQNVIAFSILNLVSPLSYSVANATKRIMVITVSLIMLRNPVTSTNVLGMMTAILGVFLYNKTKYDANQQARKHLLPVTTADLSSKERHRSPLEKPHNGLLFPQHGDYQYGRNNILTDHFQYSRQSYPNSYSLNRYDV
UniProt L0R6Q1: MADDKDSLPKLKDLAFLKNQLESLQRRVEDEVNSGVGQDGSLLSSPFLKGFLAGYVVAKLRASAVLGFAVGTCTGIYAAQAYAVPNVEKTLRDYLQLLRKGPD
UniProt Q9NTN3, whole entry, looked up: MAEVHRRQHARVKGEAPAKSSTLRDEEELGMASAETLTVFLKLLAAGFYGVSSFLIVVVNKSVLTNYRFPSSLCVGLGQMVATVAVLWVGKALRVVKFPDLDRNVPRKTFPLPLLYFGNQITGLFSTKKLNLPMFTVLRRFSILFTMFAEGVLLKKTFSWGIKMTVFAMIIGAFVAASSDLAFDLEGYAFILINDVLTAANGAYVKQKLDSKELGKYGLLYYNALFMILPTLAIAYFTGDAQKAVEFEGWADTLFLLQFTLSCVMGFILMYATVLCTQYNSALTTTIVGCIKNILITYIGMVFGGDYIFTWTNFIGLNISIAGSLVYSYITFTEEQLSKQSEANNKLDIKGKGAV
UniProt Q13433: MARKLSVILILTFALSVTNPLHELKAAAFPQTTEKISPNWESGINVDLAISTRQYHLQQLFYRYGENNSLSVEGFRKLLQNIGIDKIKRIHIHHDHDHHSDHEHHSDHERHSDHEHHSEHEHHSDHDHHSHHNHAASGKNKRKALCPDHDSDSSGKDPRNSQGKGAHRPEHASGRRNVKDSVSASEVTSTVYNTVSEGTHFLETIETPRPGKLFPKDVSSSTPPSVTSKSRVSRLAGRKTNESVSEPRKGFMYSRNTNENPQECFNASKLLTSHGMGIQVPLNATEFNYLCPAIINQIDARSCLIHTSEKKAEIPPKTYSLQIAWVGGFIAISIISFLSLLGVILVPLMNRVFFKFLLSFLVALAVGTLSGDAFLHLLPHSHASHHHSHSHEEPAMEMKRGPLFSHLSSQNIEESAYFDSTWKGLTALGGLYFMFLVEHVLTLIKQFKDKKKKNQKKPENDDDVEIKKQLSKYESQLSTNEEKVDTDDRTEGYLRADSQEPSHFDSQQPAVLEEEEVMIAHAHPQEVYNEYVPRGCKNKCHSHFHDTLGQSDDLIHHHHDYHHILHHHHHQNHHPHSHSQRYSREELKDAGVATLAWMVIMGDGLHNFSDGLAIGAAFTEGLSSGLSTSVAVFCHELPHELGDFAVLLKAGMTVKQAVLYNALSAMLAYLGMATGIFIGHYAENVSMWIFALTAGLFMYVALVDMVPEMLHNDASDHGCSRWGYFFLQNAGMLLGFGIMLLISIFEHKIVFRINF
UniProt Q8IZM9: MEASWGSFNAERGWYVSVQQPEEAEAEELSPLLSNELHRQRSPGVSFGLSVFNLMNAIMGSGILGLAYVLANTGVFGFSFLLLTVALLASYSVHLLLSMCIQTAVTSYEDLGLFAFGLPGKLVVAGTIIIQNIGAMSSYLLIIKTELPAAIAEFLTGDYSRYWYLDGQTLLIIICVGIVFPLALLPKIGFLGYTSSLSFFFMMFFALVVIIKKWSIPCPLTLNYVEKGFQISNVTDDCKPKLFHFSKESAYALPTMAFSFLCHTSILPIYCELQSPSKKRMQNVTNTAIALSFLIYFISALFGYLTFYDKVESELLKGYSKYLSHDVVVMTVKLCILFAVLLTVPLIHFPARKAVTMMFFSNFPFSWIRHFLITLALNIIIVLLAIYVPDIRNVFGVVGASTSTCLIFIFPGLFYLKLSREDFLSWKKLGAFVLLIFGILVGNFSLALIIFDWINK

[1] = compound: C/C(=N\NC(=O)C1=CC(=CC=C1)S(=O)(=O)N2CCOCC2)/C3=C(C=CC(=C3)Cl)O
Summary of the method: as §1

[2] = compound: C1=CC(=CC=C1C2=NC3=C(N2)C=C(C=C3)C(=O)N)OC4=CC=C(C=C4)Cl
Summary of the method: as §1

[3] = compound: C1=CC2=C(C=CC(=C2)/C=C\3/C(=O)NC(=NCC4=CC=CS4)S3)N=C1
Summary of the method: as §1

[4] = compound: C1=CC2=NC=CN=C2C=C1/C=C/3\C(=O)NC(=O)S3
Summary of the method: as §1

[5] = compound: C1=CC=C(C=C1)C2=NC(=C(N2)C3=CC=NC=C3)C4=CC(=C(C=C4)Cl)O
Summary of the method: as §1

[6] = compound: C1=CC=C2C(=C1)C3=NNC4=CC=CC(=C43)C2=O
Summary of the method: as §1

[7] = compound: C1CCN(C1)C(=O)NC2=CC=CC(=C2)NC3=NC=C(C(=N3)NCCC4=CN=CN4)Br
Summary of the method: as §1

[8] = compound: C1CN(CCC1(CC2=CC=C(C=C2)Cl)N)C3=NC=NC4=C3C=CN4
Summary of the method: as §1

IRAK-1-4 Inhibitor I = compound: C1COCCN1CCN2C3=CC=CC=C3N=C2NC(=O)C4=CC(=CC=C4)[N+](=O)[O-] [IRAK-1-4 Inhibitor I]
Summary of the method: as §1

Measured: log2 fold change

SLC25A42 (UniProt Q86VD7)
inactive: erlotinib 0.047 | [1] 0.008 | [2] -0.059 | [3] 0.028 | [4] -0.042 | [5] -0.025 | [6] -0.029 | [7] -0.012 | [8] 0.005 | IRAK-1-4 Inhibitor I 0.004

SLC36A1 (UniProt Q7Z2H8)
inactive: erlotinib -0.092 | [1] -0.17 | [2] 0.066 | [3] -0.014 | [4] 0.093 | [5] -0.087 | [6] -0.182 | [7] -0.19 | [8] 0.174 | IRAK-1-4 Inhibitor I -0.063

SLC31A1 (UniProt O15431)
inactive: erlotinib 0.062 | [1] -0.188 | [2] 0.076 | [3] 0.023 | [4] 0.052 | [5] -0.036 | [6] -0.155 | IRAK-1-4 Inhibitor I 0.027

SLC6A8 (UniProt P48029)
inactive: erlotinib -0.002 | [1] -0.06 | [2] 0.07 | [3] -0.02 | [4] -0.031 | [5] -0.072 | [6] -0.082 | [7] 0.076 | [8] 0.206 | IRAK-1-4 Inhibitor I 0.105

SLC22A5 isoform 3 (UniProt O76082)
inactive: erlotinib 0.259 | [1] -0.145 | [2] 0.055 | [3] -0.034 | [4] 0.028 | [5] 0.239 | [6] 0.042 | IRAK-1-4 Inhibitor I -0.188

SMARCA2 (UniProt P51531)
inactive: erlotinib -0.011 | [1] -0.039 | [2] -0.005 | [3] 0.133 | [4] -0.006 | [5] 0.003 | [6] -0.058 | [7] 0 | [8] 0.115 | IRAK-1-4 Inhibitor I -0.005

SLC30A1 (UniProt Q9Y6M5)
inactive: erlotinib 0.026 | [1] 0.008 | [2] 0.005 | [3] 0.009 | [4] -0.017 | [5] 0.001 | [6] -0.027 | [7] -0.008 | [8] 0.031 | IRAK-1-4 Inhibitor I 0.026

SLC25A15 (UniProt Q9Y619)
inactive: erlotinib 0.007 | [1] -0.071 | [2] -0.007 | [3] 0.005 | [4] -0.012 | [5] 0.01 | [6] 0.039 | [7] -0.023 | [8] -0.052 | IRAK-1-4 Inhibitor I 0.02

7 neighbouring entries out of the list so far, for reference:
SLC36A1 (UniProt Q7Z2H8)
inactive: erlotinib -0.092 | [1] -0.17 | [2] 0.066 | [3] -0.014 | [4] 0.093 | [5] -0.087 | [6] -0.182 | [7] -0.19 | [8] 0.174 | IRAK-1-4 Inhibitor I -0.063

SLC31A1 (UniProt O15431)
inactive: erlotinib 0.062 | [1] -0.188 | [2] 0.076 | [3] 0.023 | [4] 0.052 | [5] -0.036 | [6] -0.155 | IRAK-1-4 Inhibitor I 0.027

SLC6A8 (UniProt P48029)
inactive: erlotinib -0.002 | [1] -0.06 | [2] 0.07 | [3] -0.02 | [4] -0.031 | [5] -0.072 | [6] -0.082 | [7] 0.076 | [8] 0.206 | IRAK-1-4 Inhibitor I 0.105

SLC22A5 isoform 3 (UniProt O76082)
inactive: erlotinib 0.259 | [1] -0.145 | [2] 0.055 | [3] -0.034 | [4] 0.028 | [5] 0.239 | [6] 0.042 | IRAK-1-4 Inhibitor I -0.188

SMARCA2 (UniProt P51531)
inactive: erlotinib -0.011 | [1] -0.039 | [2] -0.005 | [3] 0.133 | [4] -0.006 | [5] 0.003 | [6] -0.058 | [7] 0 | [8] 0.115 | IRAK-1-4 Inhibitor I -0.005

SLC30A1 (UniProt Q9Y6M5)
inactive: erlotinib 0.026 | [1] 0.008 | [2] 0.005 | [3] 0.009 | [4] -0.017 | [5] 0.001 | [6] -0.027 | [7] -0.008 | [8] 0.031 | IRAK-1-4 Inhibitor I 0.026

SLC25A15 (UniProt Q9Y619)
inactive: erlotinib 0.007 | [1] -0.071 | [2] -0.007 | [3] 0.005 | [4] -0.012 | [5] 0.01 | [6] 0.039 | [7] -0.023 | [8] -0.052 | IRAK-1-4 Inhibitor I 0.02

Next part.

SLC35A3 isoform 2 (UniProt Q9Y2D2)
inactive: erlotinib -0.036 | [1] 0.057 | [2] 0.077 | [3] 0.001 | [5] -0.166 | [6] -0.006 | [7] -0.036 | [8] -0.002 | IRAK-1-4 Inhibitor I 0.164

SLC4A1AP (UniProt Q9BWU0)
inactive: erlotinib -0.014 | [1] -0.047 | [2] 0.013 | [3] 0.005 | [4] -0.013 | [5] -0.001 | [6] -0.023 | [7] -0.015 | [8] 0.002 | IRAK-1-4 Inhibitor I 0.001

SLC3A2 isoform 3 (UniProt P08195)
inactive: erlotinib -0.002 | [1] 0.018 | [2] 0.032 | [3] -0.012 | [4] -0.01 | [5] 0.013 | [6] 0.003 | [7] 0.015 | [8] 0.017 | IRAK-1-4 Inhibitor I 0.025

SLC25A33 (UniProt Q9BSK2)
inactive: erlotinib 0.015 | [1] 0.029 | [2] -0.05 | [3] 0.025 | [4] -0.011 | [5] 0.041 | [6] -0.061 | [7] 0.04 | [8] -0.012 | IRAK-1-4 Inhibitor I 0.024

SLC25A24 (UniProt Q6NUK1)
inactive: erlotinib -0.006 | [1] -0.005 | [2] 0.024 | [3] 0.022 | [4] 0.007 | [5] -0.013 | [6] 0.012 | [7] -0.001 | [8] -0.016 | IRAK-1-4 Inhibitor I -0.021

SLC35B1 isoform 2 (UniProt P78383)
inactive: erlotinib -0.008 | [1] -0.046 | [2] 0.009 | [3] 0.055 | [5] 0.092 | [6] -0.168 | [7] -0.011 | [8] -0.005 | IRAK-1-4 Inhibitor I -0.055

SMAP2 (UniProt Q8WU79)
inactive: erlotinib -0.009 | [1] -0.018 | [2] 0.073 | [3] 0 | [4] 0.023 | [5] -0.2 | [6] 0.015 | [7] 0.037 | [8] 0.023 | IRAK-1-4 Inhibitor I 0.044

SMAD5 (UniProt Q99717)
inactive: erlotinib 0.065 | [1] 0.148 | [2] -0.022 | [3] 0.174 | [4] -0.053 | [6] -0.201 | [7] 0.005 | [8] -0.034

SLIRP (UniProt Q9GZT3)
inactive: erlotinib -0.021 | [1] -0.016 | [2] 0.046 | [3] -0.048 | [4] 0.01 | [5] -0.009 | [6] -0.038 | [7] -0.005 | [8] 0.03 | IRAK-1-4 Inhibitor I 0.031

SLC25A40 (UniProt Q8TBP6)
inactive: erlotinib 0.031 | [1] 0.021 | [2] -0.001 | [3] 0.035 | [4] -0.026 | [5] 0 | [6] -0.107 | [7] -0.02 | [8] 0.031 | IRAK-1-4 Inhibitor I 0.022

SLC35B4 (UniProt Q969S0)
inactive: erlotinib 0.026 | [1] -0.028 | [2] -0.278 | [3] 0 | [4] 0.018 | [5] -0.058 | [6] -0.042 | [7] 0.02 | [8] 0.07 | IRAK-1-4 Inhibitor I 0.129

SLC35A1 (UniProt P78382)
inactive: erlotinib -0.262 | [1] -0.018 | [2] 0.272 | [3] -0.014 | [4] -0.048 | [6] -0.076

SLC5A6 (UniProt Q9Y289)
inactive: erlotinib 0.027 | [1] -0.014 | [2] 0.002 | [3] -0.012 | [4] -0.044 | [5] 0.012 | [6] -0.011 | [7] -0.026 | [8] 0.035 | IRAK-1-4 Inhibitor I 0.042

SLC25A36 (UniProt Q96CQ1)
inactive: erlotinib -0.021 | [1] 0.024 | [2] 0.08 | [3] -0.129 | [5] 0.041 | [6] 0.027 | [7] -0.027 | [8] -0.026 | IRAK-1-4 Inhibitor I 0.038

SLC43A3 isoform 2 (UniProt Q8NBI5)
inactive: erlotinib 0.015 | [1] -0.014 | [2] 0.003 | [3] 0.057 | [4] 0.012 | [5] 0 | [6] -0.012 | [7] 0.015 | [8] -0.063 | IRAK-1-4 Inhibitor I 0.014

SLC40A1 (UniProt Q9NP59)
inactive: erlotinib 0.188 | [1] -0.035 | [2] 0.233 | [3] 0.042 | [5] -0.052 | [6] -0.122 | [7] -0.015 | [8] 0.05 | IRAK-1-4 Inhibitor I 0.048

SLC35E1 (UniProt Q96K37)
inactive: erlotinib 0.045 | [1] -0.046 | [2] -0.011 | [3] 0.066 | [4] -0.12 | [5] 0.02 | [6] -0.003 | [7] -0.106 | [8] -0.15 | IRAK-1-4 Inhibitor I -0.019

SLC38A7 (UniProt Q9NVC3)
inactive: erlotinib -0.05 | [1] -0.022 | [2] 0.047 | [3] 0.023 | [4] 0.043 | [6] -0.058 | [7] 0.044 | [8] 0.052

SLC25A30 (UniProt Q5SVS4)
inactive: erlotinib 0.01 | [1] -0.043 | [2] -0.042 | [3] 0.028 | [4] 0.007 | [5] -0.035 | [6] 0.054 | IRAK-1-4 Inhibitor I -0.041

SLC35A4 (UniProt L0R6Q1)
inactive: erlotinib -0.026 | [1] 0.043 | [2] -0.064 | [3] 0.014 | [4] 0 | [5] -0.007 | [6] -0.058 | [7] -0.023 | [8] 0.05 | IRAK-1-4 Inhibitor I 0.013

SLC35D1 (UniProt Q9NTN3)
inactive: [1] 0.032 | [3] -0.053 | [6] 0.125

SLC39A6 (UniProt Q13433)
inactive: erlotinib 0.012 | [2] 0.018 | [5] -0.049 | IRAK-1-4 Inhibitor I -0.023

SLC38A6 isoform 2 (UniProt Q8IZM9)
inactive: erlotinib 0.07 | [1] -0.086 | [2] 0.05 | [3] 0.075 | [6] -0.118

SLCO2B1 (UniProt O94956)
inactive: [7] -0.193 | [8] -0.378
